Results are given in words; binding and its absence hold for the method and conditions named. Some results given as binding are weak or reduced against the parent protein; the word gives no strength.

Protein sequences, listed by entry. Tags and fused reporters are not part of them. Residues count along the entry.
UniProt P05067, residues 672-713: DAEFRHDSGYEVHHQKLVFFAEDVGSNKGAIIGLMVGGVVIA

The target of this test is synthesized A beta1-42 (UniProt P05067). The experiment in a line: dot blot, synthesized A beta1-42 spotted, hybridoma supernatant.

B1: AL-201 antibody (antibody, IgG2b, V domains shown)
VH: QVQLQQPGAELVKPGASVKLSCKASGYTFTSYWMHWVKQRPGQGLEWIGEINPSNGRTNYNEKFKSKATLTVDKSSSTAYMQLSSLTSEDSAVYYCARQGYRHGVFAYWGQGTLVTVSA
VL: SIVMTQTPKFLLVSAGDRVTITCKASQSVSNDVAWYQQKPGQSPKLLIYYASNRYTGVPDRFTGSGYGTDFTFTISTVQAEDLAVYFCQQDYSSPTFGAGTKLELK
B1: the binding result is “binds”.

The values are drawn from US20120082667A1.
